Source: publication PMC9380774, “Mpe1 senses the binding of pre-mRNA and controls 3′ end processing by CPF” (Molecular Cell, 2022)

Legend:
[1] = test system: polymerase module (Cft1-Pap1-Pfs2-Fip1-Yth1) (Saccharomyces cerevisiae); test: EMSA; settings: 50 nM RNA, no Mpe1; 50 nM FAM-RNA, 10% native PAGE 1X TBE, room temperature; recombinant protein; label: 5' 6-FAM
[2] = test system: polymerase module (Cft1-Pap1-Pfs2-Fip1-Yth1) + Mpe1; test: EMSA; settings: 50 nM RNA, affinity of polymerase module not substantially affected by Mpe1; 50 nM FAM-RNA, 10% native PAGE 1X TBE, room temperature; recombinant protein; label: 5' 6-FAM
[3] = test system: polymerase module (Cft1-Pap1-Pfs2-Fip1-Yth1) + Mpe1 + Cft2; test: size exclusion chromatography; settings: RNA restores Mpe1 incorporation in presence of Cft2; SEC: Superose 6 Increase 3.2/300 in SEC 50; recombinant protein; label: 5' 6-FAM

Measured: binding result

UUUAUAGUUAUGUUAGUAUUAAGAACGUUAUUUAUAUUUCAA [precleaved CYC1 (pcCYC1), 42 nt]
binds: all assays above

The exact form of at least one protein or probe is not confirmed. At least one verdict was read from the data and is not stated in words by the source.
